# Laboratory results from PubChem BioAssay AID624297 (National Center for Advancing Translational Sciences (NCATS), 2012).
# Out of some 340,000 compounds screened, about 6,200 (1.8%) were called active. This list was built around the results that the source calls inconclusive (neither active nor inactive); the mix of calls is not that of the screen. Calls come from the whole dose curve; as a rule, active = well fitted activation curve with a large enough effect; inconclusive = small, poorly fitted or top-dose-only effect; inactive = no such curve, though single readings can be large or run the other way. A potency beside an inconclusive call is a rough fit, not a confirmed value.
# Test: A quantitative high throughput screen for small molecules that induce DNA re-replication in SW480 colon adenocarcinoma cells. For re-replication activation: % of control where 0% means no effect. Note: nearly all actives have a fitted effect of over 55% in size.
# Conditions: Hoechst DNA content imaging, 48 h; re-replication activation: at 46.1 µM (top of the series) unless noted
# Summary of the method: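 Per well, 250 cells were exposed to pinned compound for 48 hr. Nuclear DNA was visualised with Hoechst (40 min, 37 C) and total object intensity recorded by fluorescence scanning.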
# Potency is the fitted concentration of half-maximal effect.
Compound,Potency,re-replication activation
Nc1nc(NCC2CCCO2)nc(Nc2ccc(Cl)cc2)c1[N+](=O)[O-] (stereo not drawn),"inconclusive: 5.8 µM [activator, single point]",–
COc1ccccc1N1CCN(S(=O)(=O)c2cc(-c3cc(C)no3)ccc2C(C)C)CC1,"inconclusive: 29.1 µM [activator, single point]",–
OCCC1CN(Cc2cccc(C(F)(F)F)c2)CCN1Cc1ccccc1 (stereo not drawn),inactive,–
COc1ccccc1OCC(=O)NCCS(=O)(=O)N1CCN(c2ccccc2)CC1,"inconclusive: 29.1 µM [activator, single point]",–
COc1ccc(NC(=O)C2CCCNC2=O)cc1 (stereo not drawn),inactive,–
CN1CCN(C(=O)C2=C[C@@H](c3ccc4c(c3)OCO4)C[C@@H](OCc3ccc(CO)cc3)O2)CC1,inactive,–
CN(CCNC(=O)CCNC(=O)Cn1ccc2ccccc2c1=O)Cc1ccccc1,"inconclusive: 1.16 µM [activator, single point]",–
COc1cc(NC(=O)CN(C)C2CCCCC2)c(C)cc1[N+](=O)[O-],inactive,–
COc1ccccc1NC(=S)N(Cc1ccco1)Cc1cc2cc(C)ccc2[nH]c1=O,"inconclusive: 25.9 µM [activator, single point]",–
CCOC(=O)c1ccc(NC(=O)c2nc[nH]c2C(=O)N2CCN(c3ccccc3)CC2)cc1,–,inactive: -68.7% [at 9.22 µM]
Cc1cccc(N=C2NN=C(c3ccc4c(c3)OCCO4)CS2)c1,"inconclusive: 29.1 µM [activator, partial curve, poor fit]",–
C[C@]12C(=O)N(c3ccc(F)cc3)C(=O)N1[C@H]1c3ccccc3OC[C@@H]1[C@H]2c1ccccc1,"inconclusive: 29.1 µM [activator, single point]",–
CCn1c(C)cc(/C=C2\NC(=O)N(Cc3ccc(Cl)cc3)C2=O)c1C,active: 14.1 µM,–
Clc1ccc2c(N/N=C/c3cccc(Br)c3)ccnc2c1,"inconclusive: 20.6 µM [activator, single point]",–
CCOC(=O)C1(Cc2cccc(OC)c2)CCN(Cc2ccc(OC)c(OC)c2)CC1,"inconclusive: 29.1 µM [activator, partial curve, poor fit]",–
CCCC(=O)Nc1cc(S(=O)(=O)N2CCOCC2)ccc1N1CCCCC1,"inconclusive: 25.9 µM [activator, partial curve, poor fit]",–
COc1cccc(CNc2ccc([N+](=O)[O-])cc2C)c1,"inconclusive: 6.51 µM [activator, single point]",–
CCOc1ccc(NC(=O)CN2C(=O)NC(C)(c3ccc(OC(F)F)cc3)C2=O)cc1 (stereo not drawn),"inconclusive: 29.1 µM [activator, single point]",–

# Sorted by count of non-hydrogen atoms (smallest number first): 3 of the compounds above.
Compound,Potency,re-replication activation
Clc1ccc2c(N/N=C/c3cccc(Br)c3)ccnc2c1,"inconclusive: 20.6 µM [activator, single point]",–
CCn1c(C)cc(/C=C2\NC(=O)N(Cc3ccc(Cl)cc3)C2=O)c1C,active: 14.1 µM,–
COc1ccccc1OCC(=O)NCCS(=O)(=O)N1CCN(c2ccccc2)CC1,"inconclusive: 29.1 µM [activator, single point]",–
